The record followed here is the supplement of paper PMC10403144.

Molecules are shown by their SMILES. This is one part of the list.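 Rule for the calls: active = mitochondrial OCR inhibition above 30% at 1 uM; inactive = 30% or less.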 Repeats are few or missing, and single values can be far off.

In this experiment the test system is Toxoplasma gondii RH tachyzoites. Kind of experiment: inhibition of mitochondrial O2 consumption rate (% inhibition (relative to pre-injection OCR and atovaquone/antimycin A control)); higher = stronger ETC inhibition. The note with it: 1 µM.
Where [1] appears, read: injection port (sequential injection order): B.
Setting [2] is: injection port (sequential injection order): A.
The mark [3] stands for this setting: injection port (sequential injection order): C.

For the compound `CO/N=C(\C(=O)OC)c1ccccc1CO/N=C(\C)c1cccc(C(F)(F)F)c1`, the “inhibition of mitochondrial O2 consumption rate” value (from here on “inhibition”) under setting [1] is active: 68.3.
Turning to `CC(C)(C)C(O)C(Oc1ccc(-c2ccccc2)cc1)n1cncn1` (centres undefined), the “inhibition” value under setting [2] was inactive: -4.6.
Regarding `Cc1nn(C)c(C)c1NS(=O)(=O)c1c(Cl)cc(-c2ccnc(N3CCNCC3)c2)cc1Cl`, the “inhibition” value under setting [3] is inactive: -13.2.
For the compound `Cc1cccc(C(=O)Nc2ccnc(N(C)C3CCN(CC(C)C)CC3)c2)c1`, the “inhibition” value under setting [2] is inactive: -10.4.
Take `Cc1cc(C2=NOC(c3cc(Cl)c(F)c(Cl)c3)(C(F)(F)F)C2)ccc1C(=O)NCc1ccc2c(c1)C(C)(C)OB2O` (centres undefined): under setting [1], the “inhibition” value is inactive: 3.37.
`O=C1O[C@@H](CO)CN1c1cc(F)c(C2=CCN(Cc3ccccc3)CC2)c(F)c1`: the “inhibition” value under setting [1] was inactive: -9.8.
As to `Cc1nn(Cc2ccccc2)c(Cl)c1C(=O)NC1CCCCCC1`, the “inhibition” value under setting [2] was inactive: -0.578.
On the same count and under the same terms, as for `CCc1nn(C)c(C(=O)NCc2ccc(Oc3ccc(C)cc3)cc2)c1Cl`, the figure is inactive: -4.92.
For the compound `CO/C=C(/C(=O)OC)c1ccccc1Oc1cc(Oc2ccccc2C#N)ncn1`, the “inhibition” value under setting [1] was active: 31.9.
For the compound `CC1(C)OB(O)c2ccc(C3=NOC(c4cc(Cl)c(F)c(Cl)c4)(C(F)(F)F)C3)cc21` (centres undefined), under setting [1], the “inhibition” value is inactive: -7.29.
With `O=C1O[C@@H](COc2ccon2)CN1c1cc(F)c(C2=CCN(Cc3ccccc3)CC2)c(F)c1`, under setting [3], the “inhibition” value was inactive: -10.6.
With `CC1COC(Cn2cncn2)(c2ccc(Oc3ccc(Cl)cc3)cc2Cl)O1` (centres undefined), the “inhibition” value under setting [2] is inactive: -3.55.
Consider `CO[C@@H]1CN(c2ccc(C#CC3(O)CN4CCC3CC4)c(Cc3ccccc3)n2)C[C@H]1O` (some centres undefined), for which the “inhibition” value under setting [3] was inactive: -42.2.
With `Nc1c2c(nc3sc4c(c13)CCCC4)CCCC2`, under setting [2], the “inhibition” value is inactive: -6.2.
